Test results as given in PMC7531004 (Nature Communications, 2020).
HELM strings list residues between dots; [ac] is acetyl, [am] amide, other brackets name non-standard units.

Assay: general procedure: Fmoc solid-phase peptide synthesis; HMBA-TentaGel macrobeads (for 1); Fmoc-L-Trp(Boc)-HMBA-ChemMatrix resin (analogues); HATU/HOAt
Details: whole synthesis; for isolated yield: over 32 steps, scale of the general procedure 20.9 umol (1), 250, 45.0 or 30.0 umol of S3 (analogues)

PEPTIDE1{[fo].V.G.A.[dL].A.[dV].V.[dV].W.[dV].W.[dL].W.[dV].W.[Eta]}$$$$V2.0
isolated mass: 14.0 mg
isolated yield: 50%

PEPTIDE1{[fo].V.G.A.[dL].A.[dL].V.[dL].W.[dL].W.[dT].W.[dV].W.[Eta]}$$$$V2.0
isolated mass: 3.70 mg
isolated yield: 13%

PEPTIDE1{[fo].V.G.A.[dT].A.[dL].V.[dL].W.[dT].W.[dL].W.[dV].W.[Eta]}$$$$V2.0
isolated mass: 70.5 mg
isolated yield: 30%

PEPTIDE1{[fo].V.G.A.[dV].A.[dV].V.[dV].W.[dL].W.[dV].W.[dV].W.[Eta]}$$$$V2.0
isolated mass: 5.36 mg
isolated yield: 19%

PEPTIDE1{[fo].V.G.A.[dL].A.[dL].V.[D-Asm].W.[dL].W.[dL].W.[dT].W.[Eta]}$$$$V2.0
isolated mass: 15.5 mg
isolated yield: 54%

PEPTIDE1{[fo].V.G.A.[dL].A.[dV].V.[dT].W.[dL].W.[dL].W.[dL].W.[Eta]}$$$$V2.0
isolated yield: 38%

PEPTIDE1{[fo].V.G.A.[dV].A.[dL].V.[dV].W.[dV].W.[dL].W.[dL].W.[Eta]}$$$$V2.0
isolated mass: 7.03 mg
isolated yield: 25%

PEPTIDE1{[fo].V.G.A.[dL].A.[dV].V.[dT].W.[dL].W.[dL].W.[dV].W.[Eta]}$$$$V2.0
isolated mass: 4.64 mg
isolated yield: 17%

PEPTIDE1{[fo].V.G.A.[dV].A.[dV].V.[dV].W.[dL].W.[dL].W.[dL].W.[Eta]}$$$$V2.0
isolated yield: 44%

PEPTIDE1{[fo].V.G.A.[dL].A.[dV].V.[dV].W.[dV].W.[dV].W.[dV].W.[Eta]}$$$$V2.0
isolated mass: 6.07 mg
isolated yield: 22%
